Test results taken from doi:10.1101/2022.04.05.487156.
Where two headings read alike, the source gives them in different places. No constants are given. Whether binding was seen depends on the method and setting. Binding seen in cells or lysates may run through a third protein. Here binding means that the protein was enriched with, or labelled near, the bait; the list need not be complete. Sequences can lack the tags named with a protein.

Sequences of proteins named here, by UniProt entry; tags and fusion partners are left off.
UniProt Q9H3P7: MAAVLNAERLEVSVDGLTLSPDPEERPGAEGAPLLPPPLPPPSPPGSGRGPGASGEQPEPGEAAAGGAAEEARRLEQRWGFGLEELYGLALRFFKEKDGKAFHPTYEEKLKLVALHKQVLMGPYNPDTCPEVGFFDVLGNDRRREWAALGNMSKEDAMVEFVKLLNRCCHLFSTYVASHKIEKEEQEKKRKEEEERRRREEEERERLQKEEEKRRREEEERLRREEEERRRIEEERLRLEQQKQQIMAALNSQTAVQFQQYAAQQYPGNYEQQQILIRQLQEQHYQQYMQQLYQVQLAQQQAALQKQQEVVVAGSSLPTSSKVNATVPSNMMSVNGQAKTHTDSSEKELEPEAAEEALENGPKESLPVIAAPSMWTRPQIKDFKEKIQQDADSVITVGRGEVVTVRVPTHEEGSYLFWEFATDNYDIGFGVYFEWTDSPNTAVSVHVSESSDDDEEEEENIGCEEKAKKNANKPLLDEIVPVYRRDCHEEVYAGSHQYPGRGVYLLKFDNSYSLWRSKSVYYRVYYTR

T1: CARP2 (Tap-tag system) (human) (UniProt Q8WZ73)
T1 sequence: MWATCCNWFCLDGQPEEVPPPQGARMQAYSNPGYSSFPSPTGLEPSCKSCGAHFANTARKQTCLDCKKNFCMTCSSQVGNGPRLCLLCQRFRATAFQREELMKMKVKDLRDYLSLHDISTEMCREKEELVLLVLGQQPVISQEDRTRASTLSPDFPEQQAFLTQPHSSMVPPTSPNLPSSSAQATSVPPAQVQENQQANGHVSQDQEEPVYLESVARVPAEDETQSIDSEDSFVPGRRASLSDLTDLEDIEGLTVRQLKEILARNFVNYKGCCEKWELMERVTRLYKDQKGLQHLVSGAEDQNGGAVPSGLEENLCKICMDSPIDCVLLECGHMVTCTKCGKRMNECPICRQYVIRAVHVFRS


Columns and labels:
[1] = biological target: T1, CARP2 (Tap-tag system) (human); test: affinity purification with mass spectrometry
[2] = biological target: T1, CARP2 (Tap-tag system) (human); test: affinity purification with mass spectrometry; remark: listed apart in the source

binding [1] | binding [2] | Molecule
binds |  | ACBD3 (from UniProt Q9H3P7 1-528)
 | binds | Golgin45 (endogenous) (protein, UniProt Q9H2G9 1-400) MTTKNLETKVTVTSSPIRGAGDGMETEEPPKSVEVTSGVQSRKHHSLQSPWKKAVPSESPGVLQLGKMLTEKAMEVKAVRILVPKAAITHDIPNKNTKVKSLGHHKGEFLGQSEGVIEPNKELSEVKNVLEKLKNSERRLLQDKEGLSNQLRVQTEVNRELKKLLVASVGDDLQYHFERLAREKNQLILENEALGRNTAQLSEQLERMSIQCDVWRSKFLASRVMADELTNSRAALQRQNRDAHGAIQDLLSEREQFRQEMIATQKLLEELLVSLQWGREQTYSPSVQPHSTAELALTNHKLAKAVNSHLLGNVGINNQKKIPSTVEFCSTPAEKMAETVLRILDPVTCKESSPDNPFFESSPTTLLATKKNIGRFHPYTRYENITFNCCNHCRGELIAL
